From patent US20150064287A1, “METHOD FOR TREATING ABNORMAL POLYGLUTAMINE-MEDIATED DISEASES” (NATIONAL TAIWAN NORMAL UNIVERSITY, priority 2013, published 2015)

Key:
[1] = MTT cytotoxicity assay in SH-SY5Y cells; type: cell-based; conditions: human, one day treatment
Description: (§1) Cells (5×10^4/well in 48-well dishes) were cultivated at 37° C. incubator containing 5% CO2 for 20 hr and treated with different concentrations of the Gardenia jasminoides extract (5-30 mg/mL) or pure compound (100 nM-1 mM). After one day, 20 μL MTT (3,[4,5-dimethylthiazol-2-yl]-2,5-diphenyl-tetrazolium bromide, 5 mg/mL in PBS; Sigma-Aldrich) was added to cells and incubated for 2 hr. The absorbance of the purple formazan dye was measured at 570 nm by a Bio-Tek μQuant Universal Microplate Spectrophotometer.

[2] = MTT cytotoxicity assay in HEK-293 cells; type: cell-based; conditions: human, one day treatment
Description: as §1

O=C(CCCCCCC(=O)Nc1ccccc1)NO [SAHA, suberoylanilide hydroxamic acid, reference compound]
IC50 at 1 day [1]: 20 µM
IC50 at 1 day [2]: 380 µM
